Measurements from article PMC7310436, “JP3, an antiangiogenic peptide, inhibits growth and metastasis of gastric cancer through TRIM25/SP1/MMP2 axis” (Journal of Experimental & Clinical Cancer Research : CR, 2020).
No constants are given. Whether binding was seen depends on the method and setting. Binding seen in cells or lysates may run through a third protein. Some binding calls cover weakened binding; strength is not graded here.

Amino acid sequences for entries named in this document (tags omitted).
UniProt P08047: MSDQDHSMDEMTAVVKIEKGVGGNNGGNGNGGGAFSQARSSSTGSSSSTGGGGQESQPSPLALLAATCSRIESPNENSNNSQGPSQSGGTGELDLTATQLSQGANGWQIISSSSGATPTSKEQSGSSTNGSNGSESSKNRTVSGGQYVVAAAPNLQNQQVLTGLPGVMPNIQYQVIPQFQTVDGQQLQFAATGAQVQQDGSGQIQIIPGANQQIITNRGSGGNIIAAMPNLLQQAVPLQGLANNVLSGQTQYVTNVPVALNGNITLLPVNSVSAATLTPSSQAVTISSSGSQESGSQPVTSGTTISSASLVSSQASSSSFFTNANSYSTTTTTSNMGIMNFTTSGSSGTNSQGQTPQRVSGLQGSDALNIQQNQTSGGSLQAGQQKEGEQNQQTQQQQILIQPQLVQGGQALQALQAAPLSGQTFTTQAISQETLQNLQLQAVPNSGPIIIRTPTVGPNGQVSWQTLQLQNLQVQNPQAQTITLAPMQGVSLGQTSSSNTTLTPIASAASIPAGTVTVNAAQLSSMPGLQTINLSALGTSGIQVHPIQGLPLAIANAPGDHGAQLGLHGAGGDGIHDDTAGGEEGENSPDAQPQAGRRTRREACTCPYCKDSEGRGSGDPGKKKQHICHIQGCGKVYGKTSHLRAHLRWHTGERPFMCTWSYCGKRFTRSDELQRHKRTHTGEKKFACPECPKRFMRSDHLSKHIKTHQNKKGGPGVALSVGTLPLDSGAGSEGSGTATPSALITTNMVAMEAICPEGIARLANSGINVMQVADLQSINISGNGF
UniProt Q14258: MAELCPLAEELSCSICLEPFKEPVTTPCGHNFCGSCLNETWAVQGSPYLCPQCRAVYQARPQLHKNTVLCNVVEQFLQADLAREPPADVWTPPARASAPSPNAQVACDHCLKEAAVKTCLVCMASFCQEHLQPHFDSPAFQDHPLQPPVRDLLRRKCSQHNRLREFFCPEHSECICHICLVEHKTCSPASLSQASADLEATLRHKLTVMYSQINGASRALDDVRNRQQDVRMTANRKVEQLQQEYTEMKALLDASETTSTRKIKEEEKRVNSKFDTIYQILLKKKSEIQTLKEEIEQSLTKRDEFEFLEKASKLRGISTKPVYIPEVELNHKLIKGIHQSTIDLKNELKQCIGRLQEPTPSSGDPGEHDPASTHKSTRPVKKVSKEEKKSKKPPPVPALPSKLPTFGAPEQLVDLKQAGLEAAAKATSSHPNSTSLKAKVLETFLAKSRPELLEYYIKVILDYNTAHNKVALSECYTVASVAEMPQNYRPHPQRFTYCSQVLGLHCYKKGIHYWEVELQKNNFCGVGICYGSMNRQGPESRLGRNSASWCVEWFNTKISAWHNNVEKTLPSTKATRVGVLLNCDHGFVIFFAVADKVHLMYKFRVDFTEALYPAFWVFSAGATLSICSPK

Target: SP1 (human (endogenous in BGC823 and SGC7901)) (UniProt P08047)
Test: co-IP; endogenous proteins in BGC823 and SGC7901 lysates; cells pre-treated with MG132 (10 uM) for 6 h; IP with anti-TRIM25 or anti-SP1 polyclonal antibodies, protein A/G agarose beads, Western blotting

- binding: binds
Substance: TRIM25 (from UniProt Q14258 1-630)
